These results are taken from PMC5993331.

Chains of the proteins cited; added tags and fusions are not shown. Residues count along the entry.
UniProt P08603, residues 19-1231: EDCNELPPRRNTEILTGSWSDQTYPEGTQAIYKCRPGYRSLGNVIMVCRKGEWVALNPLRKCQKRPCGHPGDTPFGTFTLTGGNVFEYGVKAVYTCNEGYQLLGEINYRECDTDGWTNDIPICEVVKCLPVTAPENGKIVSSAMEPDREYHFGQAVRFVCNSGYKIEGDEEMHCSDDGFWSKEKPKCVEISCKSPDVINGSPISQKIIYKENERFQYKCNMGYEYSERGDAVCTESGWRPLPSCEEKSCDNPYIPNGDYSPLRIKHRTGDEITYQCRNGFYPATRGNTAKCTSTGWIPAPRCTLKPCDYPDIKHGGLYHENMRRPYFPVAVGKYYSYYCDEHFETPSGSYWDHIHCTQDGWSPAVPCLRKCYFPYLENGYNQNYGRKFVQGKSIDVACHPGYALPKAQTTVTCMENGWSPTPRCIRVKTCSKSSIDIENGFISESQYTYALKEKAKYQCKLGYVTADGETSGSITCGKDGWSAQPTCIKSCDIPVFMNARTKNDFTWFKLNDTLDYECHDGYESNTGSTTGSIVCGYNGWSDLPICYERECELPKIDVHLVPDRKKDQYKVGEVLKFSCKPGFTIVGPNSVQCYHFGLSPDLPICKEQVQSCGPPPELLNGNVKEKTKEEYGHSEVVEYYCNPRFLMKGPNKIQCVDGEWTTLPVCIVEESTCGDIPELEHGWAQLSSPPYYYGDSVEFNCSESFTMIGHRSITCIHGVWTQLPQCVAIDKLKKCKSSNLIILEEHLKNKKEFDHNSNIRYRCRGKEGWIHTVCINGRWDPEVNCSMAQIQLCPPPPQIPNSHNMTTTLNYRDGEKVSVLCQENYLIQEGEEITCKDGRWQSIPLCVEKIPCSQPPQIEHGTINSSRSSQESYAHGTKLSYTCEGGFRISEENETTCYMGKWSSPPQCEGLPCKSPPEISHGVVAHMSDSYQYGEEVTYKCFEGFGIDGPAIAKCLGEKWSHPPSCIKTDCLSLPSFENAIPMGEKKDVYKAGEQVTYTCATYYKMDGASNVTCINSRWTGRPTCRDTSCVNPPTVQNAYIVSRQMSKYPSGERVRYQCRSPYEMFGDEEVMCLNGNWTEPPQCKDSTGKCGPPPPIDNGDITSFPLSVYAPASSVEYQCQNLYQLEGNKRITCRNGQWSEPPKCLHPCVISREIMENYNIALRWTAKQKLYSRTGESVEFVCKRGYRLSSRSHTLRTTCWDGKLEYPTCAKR
UniProt P06909, residues 19-1234: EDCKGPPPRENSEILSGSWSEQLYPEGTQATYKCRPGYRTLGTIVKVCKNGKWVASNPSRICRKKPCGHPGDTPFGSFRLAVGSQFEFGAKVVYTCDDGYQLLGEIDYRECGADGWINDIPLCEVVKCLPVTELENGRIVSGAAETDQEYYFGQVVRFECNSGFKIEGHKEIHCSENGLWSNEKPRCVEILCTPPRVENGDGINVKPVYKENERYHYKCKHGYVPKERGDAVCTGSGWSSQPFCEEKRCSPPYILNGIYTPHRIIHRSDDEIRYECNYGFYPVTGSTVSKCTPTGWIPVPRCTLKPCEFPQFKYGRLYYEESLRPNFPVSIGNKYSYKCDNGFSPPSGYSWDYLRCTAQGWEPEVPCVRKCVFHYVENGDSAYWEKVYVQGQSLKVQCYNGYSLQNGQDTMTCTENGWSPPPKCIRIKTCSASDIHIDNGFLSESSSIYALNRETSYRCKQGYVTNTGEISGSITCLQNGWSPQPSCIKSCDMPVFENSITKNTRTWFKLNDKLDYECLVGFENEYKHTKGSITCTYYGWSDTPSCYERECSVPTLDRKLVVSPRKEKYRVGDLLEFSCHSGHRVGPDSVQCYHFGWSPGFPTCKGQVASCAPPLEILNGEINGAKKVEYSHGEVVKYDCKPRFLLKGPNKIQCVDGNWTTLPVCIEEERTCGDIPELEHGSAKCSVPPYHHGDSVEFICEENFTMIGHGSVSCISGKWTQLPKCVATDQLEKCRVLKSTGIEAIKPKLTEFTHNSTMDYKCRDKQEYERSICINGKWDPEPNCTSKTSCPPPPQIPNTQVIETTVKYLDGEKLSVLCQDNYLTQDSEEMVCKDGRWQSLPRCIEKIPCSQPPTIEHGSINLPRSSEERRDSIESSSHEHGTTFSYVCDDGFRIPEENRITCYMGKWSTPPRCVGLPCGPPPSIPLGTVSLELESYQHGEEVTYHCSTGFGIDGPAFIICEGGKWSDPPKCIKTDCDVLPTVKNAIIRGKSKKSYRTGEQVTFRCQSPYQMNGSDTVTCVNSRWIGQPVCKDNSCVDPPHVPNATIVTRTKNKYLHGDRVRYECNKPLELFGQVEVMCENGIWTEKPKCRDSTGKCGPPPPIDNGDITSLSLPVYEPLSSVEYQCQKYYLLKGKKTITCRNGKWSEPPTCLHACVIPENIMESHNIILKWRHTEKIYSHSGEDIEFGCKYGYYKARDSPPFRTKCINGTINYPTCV

Results are given in words; binding and its absence hold for the method and conditions named. Where a sequence is shown, tags or fusion partners need not be part of it.

In assay [1] the target is factor H (FH) from human, purified (human) (UniProt P08603). Briefly: ELISA; one microgram of FH coated on microtiter wells; 0.03125 to 2 μM histidine-tagged CspA proteins or DbpA added; detected by mouse anti-histidine tag; KD from a one-site fit of OD405; both purified.
The target of assay [2] is factor H (FH) from mouse, purified (mouse (Mus musculus)) (UniProt P06909). Described as above.

B1: histidine-tagged DbpA from B. burgdorferi strain B31 (protein, UniProt O50917 30-191)
chain: ATKIRLERSAKDITDEIDAIKKDAALKGVNFDAFKDKKTGSGVSENPFILEAKVRATTVAEKFVIAIEEEATKLKETGSSGEFSAMYDLMFEVSKPLQKLGIQEMTKTVSDAAEENPPTTAQGVLEIAKKMREKLQRVHTKNYCTLKKKENSTFTDEKCKNN
As to B1, the binding entry in assay [1] and in assay [2] was “no binding (tested: 2 μM)” throughout.
